Measurements as given in patent US7192928B1, “T cell antigen receptor peptides” (Northern Sydney & Central Coast Area Health Services, priority 1996, dated 2007).
Some results were stated once for a whole list of compounds, not compound by compound.

System: rat T-cell line specific to MTB
Assay: Antigen-stimulated proliferation of MTB-specific T-cell line (3H-thymidine incorporation)
Type: cell-based
Settings: T-Cell Line Experiment 1, FIG. 4; peptides 100 μM in the wells

Substance | cell proliferation diminished compared to the vehicle control [%]
H-LLMTLRLWSS-OH [Peptide P, L L M T L R L W S S] | ≥ 50
H-LRILLLGV-OH [Peptide H, L R I L L L G V] | ≥ 50
